Measurements: doi:10.1101/2022.11.28.518166
These are yes or no findings as the source states them, for the method shown. For some of these results: In cells and extracts the contact can be indirect. Some entries that bind do so weakly or less than the wild type.

Sequences of proteins named here, by UniProt entry; tags and fusion partners are left off. A change or cut given only in a name is not applied to a line headed by its entry. A line that says so, or that is headed by a name, gives the form on record, which may keep a tag or linker. Residues count along the entry.
UniProt Q15561: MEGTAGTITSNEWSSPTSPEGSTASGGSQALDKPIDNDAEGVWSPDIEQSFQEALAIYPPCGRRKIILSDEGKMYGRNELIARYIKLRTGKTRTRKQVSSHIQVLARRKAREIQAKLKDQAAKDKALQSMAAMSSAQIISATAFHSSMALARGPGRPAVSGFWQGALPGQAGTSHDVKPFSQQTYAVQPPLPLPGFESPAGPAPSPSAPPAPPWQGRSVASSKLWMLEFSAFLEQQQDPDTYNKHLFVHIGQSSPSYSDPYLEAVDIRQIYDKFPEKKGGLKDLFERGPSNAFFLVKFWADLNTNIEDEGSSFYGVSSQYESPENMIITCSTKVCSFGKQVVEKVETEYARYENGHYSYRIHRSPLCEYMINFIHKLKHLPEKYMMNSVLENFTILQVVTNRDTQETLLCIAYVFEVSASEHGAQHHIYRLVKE
TEAD4 YBD domain (217-434) with N-terminal SUMO and 6xHis tag: residues 217-434 of Q15561
UniProt P35240: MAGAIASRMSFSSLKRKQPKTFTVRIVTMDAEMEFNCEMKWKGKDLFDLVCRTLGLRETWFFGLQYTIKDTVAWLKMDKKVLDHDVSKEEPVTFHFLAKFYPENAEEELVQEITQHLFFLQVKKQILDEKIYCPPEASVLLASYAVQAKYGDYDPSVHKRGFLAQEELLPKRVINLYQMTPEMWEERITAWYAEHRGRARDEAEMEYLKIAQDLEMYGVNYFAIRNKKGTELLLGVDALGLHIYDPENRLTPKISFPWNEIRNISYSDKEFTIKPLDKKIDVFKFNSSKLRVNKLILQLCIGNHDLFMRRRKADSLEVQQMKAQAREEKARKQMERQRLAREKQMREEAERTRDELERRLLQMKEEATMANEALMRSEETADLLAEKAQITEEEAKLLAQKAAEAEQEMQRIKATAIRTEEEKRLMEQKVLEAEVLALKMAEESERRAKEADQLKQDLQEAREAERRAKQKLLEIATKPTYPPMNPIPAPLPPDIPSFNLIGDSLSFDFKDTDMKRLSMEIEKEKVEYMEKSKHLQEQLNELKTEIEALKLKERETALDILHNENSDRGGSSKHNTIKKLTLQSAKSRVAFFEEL
Myc-tagged NF2-4A-del (L297A/I301A/H304A/L582A and deletion of 590-595 aa) (P35240, form named): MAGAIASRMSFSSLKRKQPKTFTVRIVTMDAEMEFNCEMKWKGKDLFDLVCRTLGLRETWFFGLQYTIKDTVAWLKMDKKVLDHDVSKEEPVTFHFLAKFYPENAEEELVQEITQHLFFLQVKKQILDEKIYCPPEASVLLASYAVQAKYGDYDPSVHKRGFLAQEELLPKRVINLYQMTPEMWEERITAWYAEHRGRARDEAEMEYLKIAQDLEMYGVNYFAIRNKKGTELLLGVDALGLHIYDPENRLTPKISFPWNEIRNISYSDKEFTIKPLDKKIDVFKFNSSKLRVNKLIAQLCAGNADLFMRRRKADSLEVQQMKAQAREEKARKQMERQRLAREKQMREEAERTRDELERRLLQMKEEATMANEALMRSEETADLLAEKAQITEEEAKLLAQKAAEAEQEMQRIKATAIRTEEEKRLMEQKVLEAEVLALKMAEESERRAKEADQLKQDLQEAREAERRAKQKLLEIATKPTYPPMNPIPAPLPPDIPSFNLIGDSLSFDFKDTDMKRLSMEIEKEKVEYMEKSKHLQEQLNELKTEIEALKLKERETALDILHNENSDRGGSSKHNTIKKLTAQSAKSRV

Tests used:
[1] = biological target: Flag-tagged TEAD4 (human) (UniProt Q15561); test: co-IP
[2] = biological target: TEAD4 YBD domain (217-434) with N-terminal SUMO and 6xHis tag (human) (UniProt Q15561); test: pull-down

Substance	binding [1]	binding [2]
Myc-tagged NF2-5A (L297A/I301A/H304A/L582A/F591A) (from UniProt P35240 1-595)	no binding	–
Myc-tagged NF2 WT (from UniProt P35240 1-595)	binds	–
Myc-tagged NF2-4A-del (L297A/I301A/H304A/L582A and deletion of 590-595 aa) (from UniProt P35240 1-595)	no binding	–
NF2 (competitor in the in vitro competitive binding assay) (from UniProt P35240 1-595)	–	binds
